Measurements reported in PubChem BioAssay AID652272 (Drosophila RNAi Screening Center, 2013)

- Aim: 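Genome-wide knock-down search for components of Hedgehog signalling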 (primary screen)
- Cells: Drosophila clone 8 (Cl8) cells
- Knock-down reagent: long dsRNA against Drosophila genes
- Detection: 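Plate reader light from a firefly reporter under a ptc promoter fragment that responds to Hedgehog, with Renilla light as transfection reference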
- Scale: firefly Hh reporter signal: higher = more ptc reporter light; Renilla reference signal: higher = more Renilla control light
- Call rule: 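Hit when the z-score averaged over two replicates is under -2 or over +3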
- Calls: active = hit: reporter lowered or raised; inactive = not a hit
In all, the deposit lists about 21,000 reagents; shown is a random part of those that have a named target and a result. Of all reagents, 503 (2.4%) were called active. 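Raw plate light values, not normalised; calls rest on replicate z-scores that were not deposited; hits include reporter decreases as well as increases.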 Names joined by + are all predicted targets of the reagent. The record does not give: the amount of reagent, the time to read-out.

ND-51 (GeneID 33852) [DRSC03145] showed firefly Hh reporter signal, replicate 1 = 74643; firefly Hh reporter signal, replicate 2 = 52155; Renilla reference signal, replicate 1 = 2555; Renilla reference signal, replicate 2 = 1914; inactive. For Mf (GeneID 41824) [DRSC16120], the values are firefly Hh reporter signal, replicate 1 = 1.34e5; firefly Hh reporter signal, replicate 2 = 1.18e5; Renilla reference signal, replicate 1 = 5056; Renilla reference signal, replicate 2 = 3506; inactive. After knock-down of Muc68D (GeneID 39326) [DRSC10569], the screen gave firefly Hh reporter signal, replicate 1 = 94645; firefly Hh reporter signal, replicate 2 = 1.03e5; Renilla reference signal, replicate 1 = 4092; Renilla reference signal, replicate 2 = 4262; inactive. With knock-down of RpS28b (GeneID 31897) [DRSC18258], the record shows firefly Hh reporter signal, replicate 1 = 30924; firefly Hh reporter signal, replicate 2 = 23521; Renilla reference signal, replicate 1 = 1467; Renilla reference signal, replicate 2 = 1114; active. After knock-down of Or19a (GeneID 59214) [DRSC20684], the record shows firefly Hh reporter signal, replicate 1 = 1.35e5; firefly Hh reporter signal, replicate 2 = 3.86e5; Renilla reference signal, replicate 1 = 4837; Renilla reference signal, replicate 2 = 13629; inactive. Against CG42269 (GeneID 38689) [DRSC10670], the entry reads firefly Hh reporter signal, replicate 1 = 46337; firefly Hh reporter signal, replicate 2 = 53512; Renilla reference signal, replicate 1 = 3837; Renilla reference signal, replicate 2 = 3485; inactive.

CG42269 (GeneID 38689) [DRSC10672] showed firefly Hh reporter signal, replicate 1 = 45158; firefly Hh reporter signal, replicate 2 = 40601; Renilla reference signal, replicate 1 = 4425; Renilla reference signal, replicate 2 = 3600; inactive. After knock-down of DCTN6-p27 (GeneID 35195) [DRSC02609], the screen gave firefly Hh reporter signal, replicate 1 = 1.21e5; firefly Hh reporter signal, replicate 2 = 4.65e5; firefly Hh reporter signal, replicate 3 = 73568; Renilla reference signal, replicate 1 = 2841; Renilla reference signal, replicate 2 = 26864; inactive. For Dpck (GeneID 40846) [DRSC12575] the deposit lists firefly Hh reporter signal, replicate 1 = 87094; firefly Hh reporter signal, replicate 2 = 84810; Renilla reference signal, replicate 1 = 3370; Renilla reference signal, replicate 2 = 2683; inactive. For Rh4 + sina [DRSC11396] the deposit lists firefly Hh reporter signal, replicate 1 = 1.21e5; firefly Hh reporter signal, replicate 2 = 55162; Renilla reference signal, replicate 1 = 4845; Renilla reference signal, replicate 2 = 2512; inactive. For Syn2 (GeneID 36848) [DRSC06902] the deposit lists firefly Hh reporter signal, replicate 1 = 77016; firefly Hh reporter signal, replicate 2 = 59707; Renilla reference signal, replicate 1 = 2299; Renilla reference signal, replicate 2 = 4534; inactive. Pli (GeneID 42821) [DRSC16792] showed firefly Hh reporter signal, replicate 1 = 1.31e5; firefly Hh reporter signal, replicate 2 = 81242; Renilla reference signal, replicate 1 = 5187; Renilla reference signal, replicate 2 = 2649; inactive.

Just “firefly Hh reporter signal, replicate 2”, for 2 of the entries above:
RpS28b (GeneID 31897) [DRSC18258] = 23521
Or19a (GeneID 59214) [DRSC20684] = 3.86e5
